Results are given in words; binding and its absence hold for the method and conditions named. For some assays here: Binding seen in cells or lysates may run through a third protein. Some entries that bind do so weakly or less than the wild type. Where a sequence is shown, tags or fusion partners need not be part of it.
T1: Flag-Ccdc124 (N-terminus flag-tagged Ccdc124) (human) (UniProt Q96CT7)
T1 sequence: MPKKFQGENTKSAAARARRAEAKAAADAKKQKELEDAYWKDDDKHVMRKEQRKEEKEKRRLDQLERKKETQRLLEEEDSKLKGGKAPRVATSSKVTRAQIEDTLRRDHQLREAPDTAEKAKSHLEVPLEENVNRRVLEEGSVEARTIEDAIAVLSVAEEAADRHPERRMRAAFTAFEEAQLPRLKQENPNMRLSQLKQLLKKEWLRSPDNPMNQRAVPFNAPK

T2: GST-RasGEF1B, bacteria purified (UniProt Q0VAM2)
T2 sequence: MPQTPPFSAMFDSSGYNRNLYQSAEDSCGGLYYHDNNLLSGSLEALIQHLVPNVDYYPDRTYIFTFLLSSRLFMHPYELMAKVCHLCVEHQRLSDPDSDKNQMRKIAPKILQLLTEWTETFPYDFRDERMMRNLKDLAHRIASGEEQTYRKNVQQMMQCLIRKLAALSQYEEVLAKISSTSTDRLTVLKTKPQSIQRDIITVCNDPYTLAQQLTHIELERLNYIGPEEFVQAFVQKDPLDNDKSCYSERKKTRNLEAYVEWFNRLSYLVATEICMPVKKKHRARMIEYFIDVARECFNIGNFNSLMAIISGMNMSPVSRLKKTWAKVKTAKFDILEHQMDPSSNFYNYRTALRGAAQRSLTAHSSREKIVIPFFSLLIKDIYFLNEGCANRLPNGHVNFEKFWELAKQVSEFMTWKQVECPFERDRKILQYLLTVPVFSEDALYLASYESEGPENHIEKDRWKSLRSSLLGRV


How the values were obtained:
[1] = biological target: T1, Flag-Ccdc124 (N-terminus flag-tagged Ccdc124) (human); experiment: co-IP; HEK-293 cells co-transfected; NP-40 lysis buffer; precipitation by anti-Flag beads; immunoblots with anti-GFP and anti-Flag-HRP
[2] = biological target: T2, GST-RasGEF1B, bacteria purified; experiment: pull-down; 200 µg GST-RasGEF1B immobilised on GSH beads, incubated with 500 µg His-Ccdc124 at 4°C for 1 hour; 50 mM Tris HCl pH 7.5, 100 mM NaCl, 3 mM β-mercaptoethanol; 10 washes; Coomassie-stained gel; both purified

| binding [1] | binding [2] | Binder |
| --- | --- | --- |
| binds | – | GFP-RasGEF1B (protein, UniProt Q0VAM2 1-473) MPQTPPFSAMFDSSGYNRNLYQSAEDSCGGLYYHDNNLLSGSLEALIQHLVPNVDYYPDRTYIFTFLLSSRLFMHPYELMAKVCHLCVEHQRLSDPDSDKNQMRKIAPKILQLLTEWTETFPYDFRDERMMRNLKDLAHRIASGEEQTYRKNVQQMMQCLIRKLAALSQYEEVLAKISSTSTDRLTVLKTKPQSIQRDIITVCNDPYTLAQQLTHIELERLNYIGPEEFVQAFVQKDPLDNDKSCYSERKKTRNLEAYVEWFNRLSYLVATEICMPVKKKHRARMIEYFIDVARECFNIGNFNSLMAIISGMNMSPVSRLKKTWAKVKTAKFDILEHQMDPSSNFYNYRTALRGAAQRSLTAHSSREKIVIPFFSLLIKDIYFLNEGCANRLPNGHVNFEKFWELAKQVSEFMTWKQVECPFERDRKILQYLLTVPVFSEDALYLASYESEGPENHIEKDRWKSLRSSLLGRV |
| – | binds | His-tagged Ccdc124, bacteria purified (protein, UniProt Q96CT7 1-223) MPKKFQGENTKSAAARARRAEAKAAADAKKQKELEDAYWKDDDKHVMRKEQRKEEKEKRRLDQLERKKETQRLLEEEDSKLKGGKAPRVATSSKVTRAQIEDTLRRDHQLREAPDTAEKAKSHLEVPLEENVNRRVLEEGSVEARTIEDAIAVLSVAEEAADRHPERRMRAAFTAFEEAQLPRLKQENPNMRLSQLKQLLKKEWLRSPDNPMNQRAVPFNAPK |

Source: article PMC3716640
